Experimental data: the supplement of paper PMC10849652
Some of the results follow. Residues, ends and D or L forms follow the SMILES beside them. *: point of attachment. Cbz = O=C(OCc1ccccc1)*

Chains of the proteins cited; added tags and fusions are not shown. Lines headed by an entry give the natural chain unless they say otherwise; changes in a name come on top.
UniProt P63027, whole entry, looked up: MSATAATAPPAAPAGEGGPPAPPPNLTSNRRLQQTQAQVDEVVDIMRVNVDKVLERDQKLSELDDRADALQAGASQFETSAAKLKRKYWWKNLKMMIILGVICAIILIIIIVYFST
UniProt Q9BZX2: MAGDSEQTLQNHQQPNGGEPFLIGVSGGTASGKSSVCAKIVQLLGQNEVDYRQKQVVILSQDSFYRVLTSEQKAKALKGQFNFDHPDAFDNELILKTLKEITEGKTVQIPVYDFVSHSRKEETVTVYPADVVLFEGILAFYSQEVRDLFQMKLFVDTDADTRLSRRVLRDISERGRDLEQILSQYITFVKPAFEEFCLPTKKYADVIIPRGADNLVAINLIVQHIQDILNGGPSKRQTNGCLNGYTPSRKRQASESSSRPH
UniProt Q9P0L0: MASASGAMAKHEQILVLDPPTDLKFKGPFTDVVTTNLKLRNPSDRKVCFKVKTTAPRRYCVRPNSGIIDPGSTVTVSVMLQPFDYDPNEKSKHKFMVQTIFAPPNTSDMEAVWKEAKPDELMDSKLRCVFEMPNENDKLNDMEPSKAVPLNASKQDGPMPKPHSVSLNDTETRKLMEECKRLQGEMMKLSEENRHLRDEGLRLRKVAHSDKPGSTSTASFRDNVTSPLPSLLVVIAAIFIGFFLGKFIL
UniProt Q9NYU1: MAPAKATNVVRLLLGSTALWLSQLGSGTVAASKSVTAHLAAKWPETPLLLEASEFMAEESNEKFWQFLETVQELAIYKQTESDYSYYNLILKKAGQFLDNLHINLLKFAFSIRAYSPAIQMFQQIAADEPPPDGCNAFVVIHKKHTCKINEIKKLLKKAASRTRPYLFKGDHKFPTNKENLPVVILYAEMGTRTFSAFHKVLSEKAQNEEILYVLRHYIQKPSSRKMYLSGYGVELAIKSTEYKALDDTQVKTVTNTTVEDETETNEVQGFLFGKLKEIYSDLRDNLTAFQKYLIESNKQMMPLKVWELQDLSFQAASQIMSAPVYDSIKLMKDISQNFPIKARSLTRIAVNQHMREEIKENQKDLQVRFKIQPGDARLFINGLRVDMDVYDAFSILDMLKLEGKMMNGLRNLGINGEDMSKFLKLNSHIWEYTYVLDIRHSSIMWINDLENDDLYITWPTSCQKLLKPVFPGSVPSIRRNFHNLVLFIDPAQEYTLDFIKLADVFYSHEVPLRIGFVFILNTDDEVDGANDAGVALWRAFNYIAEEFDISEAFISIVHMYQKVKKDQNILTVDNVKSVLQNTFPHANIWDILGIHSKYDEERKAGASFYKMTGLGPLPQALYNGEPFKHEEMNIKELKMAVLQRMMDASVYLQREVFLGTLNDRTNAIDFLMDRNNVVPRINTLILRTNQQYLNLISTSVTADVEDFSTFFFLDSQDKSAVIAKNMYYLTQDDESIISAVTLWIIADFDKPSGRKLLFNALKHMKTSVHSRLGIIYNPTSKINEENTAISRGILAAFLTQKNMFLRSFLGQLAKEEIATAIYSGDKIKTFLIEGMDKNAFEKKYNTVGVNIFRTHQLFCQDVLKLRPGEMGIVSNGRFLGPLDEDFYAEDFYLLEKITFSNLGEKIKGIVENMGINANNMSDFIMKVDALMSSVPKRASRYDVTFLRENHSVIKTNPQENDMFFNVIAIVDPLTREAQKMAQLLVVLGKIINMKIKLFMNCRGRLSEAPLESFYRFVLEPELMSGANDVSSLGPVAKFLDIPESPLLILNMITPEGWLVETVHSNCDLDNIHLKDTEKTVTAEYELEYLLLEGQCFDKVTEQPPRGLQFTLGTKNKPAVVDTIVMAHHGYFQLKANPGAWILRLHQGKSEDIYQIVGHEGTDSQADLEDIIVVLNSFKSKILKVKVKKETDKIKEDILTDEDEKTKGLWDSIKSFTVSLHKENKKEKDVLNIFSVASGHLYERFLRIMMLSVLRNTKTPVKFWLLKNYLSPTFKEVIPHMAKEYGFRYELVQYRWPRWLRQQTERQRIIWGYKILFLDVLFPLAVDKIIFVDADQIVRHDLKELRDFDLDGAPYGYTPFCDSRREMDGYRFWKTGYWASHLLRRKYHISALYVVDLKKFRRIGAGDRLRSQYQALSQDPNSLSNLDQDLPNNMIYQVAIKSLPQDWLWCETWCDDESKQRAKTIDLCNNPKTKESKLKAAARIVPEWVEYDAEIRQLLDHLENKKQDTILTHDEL
UniProt P10746: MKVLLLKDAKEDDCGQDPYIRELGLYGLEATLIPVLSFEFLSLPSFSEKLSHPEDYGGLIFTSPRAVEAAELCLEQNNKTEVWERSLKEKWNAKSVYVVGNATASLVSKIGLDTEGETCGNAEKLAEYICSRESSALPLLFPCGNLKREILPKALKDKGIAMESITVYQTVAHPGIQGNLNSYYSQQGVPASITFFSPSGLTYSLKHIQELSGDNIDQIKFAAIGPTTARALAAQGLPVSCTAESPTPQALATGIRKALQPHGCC
UniProt Q9Y5T5, whole entry, looked up: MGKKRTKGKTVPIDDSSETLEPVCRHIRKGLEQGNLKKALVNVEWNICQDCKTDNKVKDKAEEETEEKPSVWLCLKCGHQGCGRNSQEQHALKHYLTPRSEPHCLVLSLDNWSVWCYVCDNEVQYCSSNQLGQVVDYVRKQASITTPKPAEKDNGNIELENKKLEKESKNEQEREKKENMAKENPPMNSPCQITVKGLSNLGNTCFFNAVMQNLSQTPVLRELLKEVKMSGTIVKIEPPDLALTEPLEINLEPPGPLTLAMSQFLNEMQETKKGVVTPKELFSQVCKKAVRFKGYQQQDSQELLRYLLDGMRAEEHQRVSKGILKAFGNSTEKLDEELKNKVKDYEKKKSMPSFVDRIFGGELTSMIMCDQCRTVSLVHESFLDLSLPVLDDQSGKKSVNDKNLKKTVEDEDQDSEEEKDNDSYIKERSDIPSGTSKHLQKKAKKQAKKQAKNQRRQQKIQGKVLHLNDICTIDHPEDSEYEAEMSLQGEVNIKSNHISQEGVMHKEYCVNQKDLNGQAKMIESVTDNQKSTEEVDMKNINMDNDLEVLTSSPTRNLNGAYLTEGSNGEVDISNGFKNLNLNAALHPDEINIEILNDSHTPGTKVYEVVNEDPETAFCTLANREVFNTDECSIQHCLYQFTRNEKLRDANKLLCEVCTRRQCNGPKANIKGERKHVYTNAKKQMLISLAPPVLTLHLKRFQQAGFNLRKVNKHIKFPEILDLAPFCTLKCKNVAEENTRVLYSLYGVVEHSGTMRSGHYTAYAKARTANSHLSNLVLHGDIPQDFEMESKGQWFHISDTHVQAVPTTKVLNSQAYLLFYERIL
UniProt Q9NZ43: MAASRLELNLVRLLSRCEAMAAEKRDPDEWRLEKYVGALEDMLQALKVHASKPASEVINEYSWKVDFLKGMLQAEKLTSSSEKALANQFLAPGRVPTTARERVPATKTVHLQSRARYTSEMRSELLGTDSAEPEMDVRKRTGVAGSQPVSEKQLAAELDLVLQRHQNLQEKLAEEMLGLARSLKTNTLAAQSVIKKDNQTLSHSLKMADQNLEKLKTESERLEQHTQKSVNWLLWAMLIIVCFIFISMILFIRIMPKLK
UniProt Q96S82: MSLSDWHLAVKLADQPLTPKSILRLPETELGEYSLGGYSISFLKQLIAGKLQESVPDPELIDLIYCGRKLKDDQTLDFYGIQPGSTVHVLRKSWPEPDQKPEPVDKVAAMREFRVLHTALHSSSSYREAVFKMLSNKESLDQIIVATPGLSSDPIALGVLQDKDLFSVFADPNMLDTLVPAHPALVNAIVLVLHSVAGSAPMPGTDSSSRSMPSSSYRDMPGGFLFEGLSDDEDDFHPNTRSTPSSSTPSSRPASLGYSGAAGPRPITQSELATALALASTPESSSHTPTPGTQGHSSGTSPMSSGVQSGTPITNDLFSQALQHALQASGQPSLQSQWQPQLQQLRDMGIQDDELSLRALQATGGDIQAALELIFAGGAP
UniProt P47985: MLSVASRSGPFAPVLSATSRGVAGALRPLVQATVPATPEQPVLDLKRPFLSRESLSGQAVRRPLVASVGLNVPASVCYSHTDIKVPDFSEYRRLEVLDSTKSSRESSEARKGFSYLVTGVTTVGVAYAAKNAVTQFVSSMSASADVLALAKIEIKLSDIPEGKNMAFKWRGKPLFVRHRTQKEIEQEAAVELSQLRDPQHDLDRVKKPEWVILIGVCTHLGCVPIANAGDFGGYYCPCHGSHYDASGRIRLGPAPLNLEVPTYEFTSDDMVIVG
UniProt O94763, whole entry, looked up: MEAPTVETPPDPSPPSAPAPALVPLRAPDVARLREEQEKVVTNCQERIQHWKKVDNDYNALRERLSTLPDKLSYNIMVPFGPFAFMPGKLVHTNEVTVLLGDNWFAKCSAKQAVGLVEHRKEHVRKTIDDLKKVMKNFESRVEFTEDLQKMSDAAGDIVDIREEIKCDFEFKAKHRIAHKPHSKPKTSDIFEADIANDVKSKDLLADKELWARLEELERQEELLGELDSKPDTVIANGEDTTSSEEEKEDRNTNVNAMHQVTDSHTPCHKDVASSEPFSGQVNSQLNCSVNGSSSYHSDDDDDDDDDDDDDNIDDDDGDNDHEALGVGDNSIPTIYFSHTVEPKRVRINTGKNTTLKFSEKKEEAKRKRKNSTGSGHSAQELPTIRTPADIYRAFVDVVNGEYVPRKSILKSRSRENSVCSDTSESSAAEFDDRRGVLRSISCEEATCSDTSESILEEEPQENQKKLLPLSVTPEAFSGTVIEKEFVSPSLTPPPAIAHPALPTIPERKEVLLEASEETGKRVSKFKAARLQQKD
UniProt Q14694, whole entry, looked up: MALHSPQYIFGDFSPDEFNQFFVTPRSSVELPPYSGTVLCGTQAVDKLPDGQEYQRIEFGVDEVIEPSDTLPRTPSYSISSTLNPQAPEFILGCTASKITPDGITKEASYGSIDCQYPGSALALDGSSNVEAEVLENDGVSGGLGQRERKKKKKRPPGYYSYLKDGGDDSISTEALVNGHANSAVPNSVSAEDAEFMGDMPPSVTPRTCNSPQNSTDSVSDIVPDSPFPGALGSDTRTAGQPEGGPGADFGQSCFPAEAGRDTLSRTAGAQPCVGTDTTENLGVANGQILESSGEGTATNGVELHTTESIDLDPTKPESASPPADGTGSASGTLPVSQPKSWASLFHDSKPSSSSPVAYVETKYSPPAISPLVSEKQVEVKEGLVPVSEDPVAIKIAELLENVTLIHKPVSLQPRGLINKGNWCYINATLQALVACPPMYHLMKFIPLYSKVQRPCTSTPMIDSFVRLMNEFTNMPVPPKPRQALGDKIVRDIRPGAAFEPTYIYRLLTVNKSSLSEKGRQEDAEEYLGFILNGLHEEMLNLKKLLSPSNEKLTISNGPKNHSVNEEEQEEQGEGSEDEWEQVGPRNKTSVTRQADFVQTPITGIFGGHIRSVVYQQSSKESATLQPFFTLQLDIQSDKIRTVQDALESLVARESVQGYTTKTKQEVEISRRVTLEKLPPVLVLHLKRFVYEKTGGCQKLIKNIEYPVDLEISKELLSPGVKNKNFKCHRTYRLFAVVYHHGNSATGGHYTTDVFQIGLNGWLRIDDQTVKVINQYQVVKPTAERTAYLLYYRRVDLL
UniProt Q70CQ3: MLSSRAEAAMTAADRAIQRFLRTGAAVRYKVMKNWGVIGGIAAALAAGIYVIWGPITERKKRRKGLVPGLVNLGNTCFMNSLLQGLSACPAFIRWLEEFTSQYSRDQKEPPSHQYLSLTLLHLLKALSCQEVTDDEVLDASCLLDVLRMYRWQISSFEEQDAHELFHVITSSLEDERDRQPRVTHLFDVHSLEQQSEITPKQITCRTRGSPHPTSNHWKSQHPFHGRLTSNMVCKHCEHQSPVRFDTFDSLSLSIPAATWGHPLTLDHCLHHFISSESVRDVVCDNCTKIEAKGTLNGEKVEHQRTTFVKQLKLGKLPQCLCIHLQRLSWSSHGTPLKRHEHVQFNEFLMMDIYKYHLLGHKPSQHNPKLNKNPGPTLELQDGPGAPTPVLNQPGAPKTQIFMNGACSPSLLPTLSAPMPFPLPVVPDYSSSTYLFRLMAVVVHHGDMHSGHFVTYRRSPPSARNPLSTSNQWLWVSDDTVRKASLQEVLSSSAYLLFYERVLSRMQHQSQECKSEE
UniProt O14562: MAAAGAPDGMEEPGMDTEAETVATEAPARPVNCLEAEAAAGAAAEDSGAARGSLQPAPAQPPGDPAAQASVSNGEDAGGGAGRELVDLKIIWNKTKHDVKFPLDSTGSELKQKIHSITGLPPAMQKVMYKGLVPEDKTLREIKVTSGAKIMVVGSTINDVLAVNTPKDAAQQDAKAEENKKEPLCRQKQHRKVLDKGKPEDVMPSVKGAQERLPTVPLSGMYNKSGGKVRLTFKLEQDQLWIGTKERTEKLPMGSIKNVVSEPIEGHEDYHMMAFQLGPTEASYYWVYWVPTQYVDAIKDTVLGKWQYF
UniProt Q9BZL1: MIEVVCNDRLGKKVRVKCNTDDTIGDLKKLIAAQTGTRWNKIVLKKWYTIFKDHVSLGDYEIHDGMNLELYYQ
UniProt O75379: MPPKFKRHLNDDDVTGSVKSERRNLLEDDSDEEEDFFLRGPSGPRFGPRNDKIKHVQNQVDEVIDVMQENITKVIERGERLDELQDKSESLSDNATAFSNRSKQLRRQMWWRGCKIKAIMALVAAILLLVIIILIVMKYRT
UniProt O14949: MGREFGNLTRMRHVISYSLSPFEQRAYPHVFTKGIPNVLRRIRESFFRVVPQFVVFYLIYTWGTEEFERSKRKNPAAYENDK

Compound: CC(C)C1=C2N=C(C=C(N2N=C1)NCC3=CC=CC=C3)NCCCCCCN
Assay: log2 fold change, soluble protein after heating vs DMSO (PISA); higher = thermal stabilisation; K562 cells, 10 uM, 30 min; active = over 0.2 and 3.5 SD of the protein, either way, in both replicates (recomputed)
Summary of the method: (§1)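 K562 cells at 2×10^6 cells/mL were given 10 μM compound for 30 min. Aliquots then went through 3 min of heating across 48°C-58°C, were pooled, and were extracted in PBS with 0.5% NP-40 at 4°C, and the supernatant after 21,000xg for 90 min was quantified by TMTpro 16plex LC-MS/MS with channel sums equalised. Thermal stability relative to control samples, from duplicates, is given as log2 fold change.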

log2 fold change, inactive:
UBXN4 (UniProt Q92575) -0.091, VAMP2 (UniProt P63027) -0.063, UCK2 (UniProt Q9BZX2) 0.022, VAPA (UniProt Q9P0L0) -0.035, UGGT2 (UniProt Q9NYU1) 0.005, UROS (UniProt P10746) -0.014, USP16 (UniProt Q9Y5T5) -0.09, UPF2 (UniProt Q9HAU5) -0.23, USE1 (UniProt Q9NZ43) 0.016, UBL7 (UniProt Q96S82) -0.111, UROD (UniProt P06132) 0.05, UQCRFS1 (UniProt P47985) 0.045, URI1 (UniProt O94763) -0.009, USP10 isoform 2 (UniProt Q14694) -0.015, USP30 (UniProt Q70CQ3) 0.29, UBFD1 (UniProt O14562) 0.041

Compound: CC(C)C[C@@H](C=O)NC(=O)[C@H](CC(C)C)NC(=O)[C@H](CC(C)C)NC(=O)OCc1ccccc1
Assay: as above
Summary of the method: as §1

log2 fold change, inactive:
UBQLN2 (UniProt Q9UHD9) -0.038, UQCC1 (UniProt Q9NVA1) -0.026, USP1 (UniProt O94782) 0.25, UCK1 (UniProt Q9HA47) 0.041, UCHL3 (UniProt P15374) 0.01, VAC14 (UniProt Q08AM6) -0.04, UTP15 (UniProt Q8TED0) 0.103, VAMP8 (UniProt Q9BV40) 0.012, VASP (UniProt P50552) 0.096, URGCP (UniProt Q8TCY9) 0.072, UBL5 (UniProt Q9BZL1) 0.069, UIMC1 (UniProt Q96RL1) 0.172, USP47 (UniProt Q96K76) 0.009, UNC13D isoform 3 (UniProt Q70J99) 0.21, UNC45A (UniProt Q9H3U1) 0.064, UVRAG (UniProt Q9P2Y5) 0.005, URI1 isoform 4 (UniProt O94763) 0.183, VAMP4 (UniProt O75379) 0.041, UQCRQ (UniProt O14949) -0.052, UBR7 (UniProt Q8N806) -0.004, UPF1 (UniProt Q92900) 0.011, UFC1 (UniProt Q9Y3C8) -0.057, UBE3C (UniProt Q15386) 0.027, UBXN4 (UniProt Q92575) -0.039, VAMP2 (UniProt P63027) -0.001, UCK2 (UniProt Q9BZX2) -0.033, VAPA (UniProt Q9P0L0) -0.008, UGGT2 (UniProt Q9NYU1) -0.024, UROS (UniProt P10746) 0.053, USP16 (UniProt Q9Y5T5) 0.028, UPF2 (UniProt Q9HAU5) 0.124, USE1 (UniProt Q9NZ43) 0.035, UBL7 (UniProt Q96S82) 0.066, UROD (UniProt P06132) 0.077, UQCRFS1 (UniProt P47985) -0.032, URI1 (UniProt O94763) 0.065, USP10 isoform 2 (UniProt Q14694) 0.097, USP30 (UniProt Q70CQ3) 0.278, UBFD1 (UniProt O14562) 0

Compound: CC(C)N(C[C@H]1O[C@@H](n2cnc3c(N)ncnc32)[C@H](O)[C@@H]1O)[C@H]1C[C@@H](CCc2nc3cc(C(C)(C)C)ccc3[nH]2)C1 [pinometostat]
Assay: as above
Summary of the method: as §1

log2 fold change, inactive:
UBQLN2 (UniProt Q9UHD9) -0.024, UQCC1 (UniProt Q9NVA1) -0.05, USP1 (UniProt O94782) 0.116, UCK1 (UniProt Q9HA47) -0.034, UCHL3 (UniProt P15374) -0.01, VAC14 (UniProt Q08AM6) -0.001, UTP15 (UniProt Q8TED0) 0.326, VAMP8 (UniProt Q9BV40) -0.06, VASP (UniProt P50552) 0.132, URGCP (UniProt Q8TCY9) 0.078, UBL5 (UniProt Q9BZL1) 0.032, UIMC1 (UniProt Q96RL1) 0.129, USP47 (UniProt Q96K76) 0.222, UNC13D isoform 3 (UniProt Q70J99) 0.301, UNC45A (UniProt Q9H3U1) 0.132, UVRAG (UniProt Q9P2Y5) -0.013, URI1 isoform 4 (UniProt O94763) -0.037, VAMP4 (UniProt O75379) -0.006, UQCRQ (UniProt O14949) 0.001, UBR7 (UniProt Q8N806) -0.003, UPF1 (UniProt Q92900) -0.002, UFC1 (UniProt Q9Y3C8) -0.064, UBE3C (UniProt Q15386) 0.013, UBXN4 (UniProt Q92575) 0.177, VAMP2 (UniProt P63027) -0.1, UCK2 (UniProt Q9BZX2) -0.014, VAPA (UniProt Q9P0L0) -0.061, UGGT2 (UniProt Q9NYU1) -0.017, UROS (UniProt P10746) 0.062, USP16 (UniProt Q9Y5T5) 0.191, UPF2 (UniProt Q9HAU5) 0.321, USE1 (UniProt Q9NZ43) 0.036, UBL7 (UniProt Q96S82) -0.07, UROD (UniProt P06132) -0.068, UQCRFS1 (UniProt P47985) -0.083, URI1 (UniProt O94763) 0.017, USP10 isoform 2 (UniProt Q14694) 0.033, USP30 (UniProt Q70CQ3) 0.001, UBFD1 (UniProt O14562) -0.029
